Data taken from patent publication US20140018304A1 (INDUSTRY ACADEMIC COOPERATION FOUNDATION YONSEI UNIVERSITY, published 2014).
These are yes or no findings as the source states them, for the method shown. For some assays here: In cells and extracts the contact can be indirect. Some results given as binding are weak or reduced against the parent protein; the word gives no strength. Where a sequence is shown, tags or fusion partners need not be part of it.

T1: PAUF-Myc/His from pcDNA3.1(+)-PAUF-Myc/His (UniProt Q96DA0)
T1 sequence (looked up): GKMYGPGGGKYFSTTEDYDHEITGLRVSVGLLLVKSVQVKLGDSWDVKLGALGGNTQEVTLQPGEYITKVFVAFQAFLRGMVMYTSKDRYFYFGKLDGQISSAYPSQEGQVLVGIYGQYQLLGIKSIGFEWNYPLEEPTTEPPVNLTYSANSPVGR

B1: GLRX3 protein (Glutaredoxin-3) in total proteins of the pancreatic cancer cell line CFPAC-1 (enzyme, human, UniProt O76003 2-335, looked up)
chain: AAGAAEAAVAAVEEVGSAGQFEELLRLKAKSLLVVHFWAPWAPQCAQMNEVMAELAKELPQVSFVKLEAEGVPEVSEKYEISSVPTFLFFKNSQKIDRLDGAHAPELTKKVQRHASSGSFLPSANEHLKEDLNLRLKKLTHAAPCMLFMKGTPQEPRCGFSKQMVEILHKHNIQFSSFDIFSDEEVRQGLKAYSSWPTYPQLYVSGELIGGLDIIKELEASEELDTICPKAPKLEERLKVLTNKASVMLFMKGNKQEAKCGFSKQILEILNSTGVEYETFDILEDEEVRQGLKAYSNWPTYPQLYVKGELVGGLDIVKELKENGELLPILRGEN
B2: UBL4A protein (Ubiquitin-like 4A) in total proteins of the pancreatic cancer cell line CFPAC-1 (protein, human, UniProt P11441 1-157, looked up)
chain: MQLTVKALQGRECSLQVPEDELVSTLKQLVSEKLNVPVRQQRLLFKGKALADGKRLSDYSIGPNSKLNLVVKPLEKVLLEEGEAQRLADSPPPQVWQLISKVLARHFSAADASRVLEQLQRDYERSLSRLTLDDIERLASRFLHPEVTETMEKGFSK
B3: GLRX3 (H14) expressed from 3xFLAG-CMV14/H14 (enzyme, Homo sapiens, UniProt O76003 1-335, looked up, not shown: small tags and cut ends)
chain: MAAGAAEAAVAAVEEVGSAGQFEELLRLKAKSLLVVHFWAPWAPQCAQMNEVMAELAKELPQVSFVKLEAEGVPEVSEKYEISSVPTFLFFKNSQKIDRLDGAHAPELTKKVQRHASSGSFLPSANEHLKEDLNLRLKKLTHAAPCMLFMKGTPQEPRCGFSKQMVEILHKHNIQFSSFDIFSDEEVRQGLKAYSSWPTYPQLYVSGELIGGLDIIKELEASEELDTICPKAPKLEERLKVLTNKASVMLFMKGNKQEAKCGFSKQILEILNSTGVEYETFDILEDEEVRQGLKAYSNWPTYPQLYVKGELVGGLDIVKELKENGELLPILRGEN
B4: UBL4A (H32) expressed from 3xFLAG-CMV14/H32 (protein, Homo sapiens, UniProt P11441 1-157, looked up, not shown: small tags and cut ends)
chain: B2 chain

How the values were obtained:
[1] = target: T1, PAUF-Myc/His from pcDNA3.1(+)-PAUF-Myc/His; test: His pull-down: PAUF-His on Ni-NTA resin with CFPAC-1 total proteins, western blot
[2] = target: T1, PAUF-Myc/His from pcDNA3.1(+)-PAUF-Myc/His; test: co-expression in HeLa cells, precipitation with Ni-NTA resin, western blot
[3] = target: T1, PAUF-Myc/His from pcDNA3.1(+)-PAUF-Myc/His; test: in vivo co-immunoprecipitation of GLRX3 constructs with PAUF, western blot

Row | Binder | binding [1] | binding [2] | binding [3]
1 | B1 | binds |  | 
2 | B2 | binds |  | 
3 | B3 |  | binds | binds
4 | B4 |  | binds | 
